The values that follow come from PubChem BioAssay AID256 (DTP/NCI, 2004).

The assay concerns CD2F1 mice, L1210 leukemia ip, survival T/C. Kind of assay: NCI In Vivo Anticancer Drug Screen. Data for tumor model L1210 Leukemia (intraperitoneal) in CD2F1 (CDF1) mice. Conditions: higher T/C = longer survival. In outline: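 Implant tumor; dose compound or vehicle; measure endpoint in both groups; report treated divided by control.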
Where [1] appears, read: T/C endpoint: mean survival time, dose: 400.0 mg/kg/injection, schedule: Q01DX001 (ip), vehicle: saline with Tween-80.
[2] abbreviates: T/C endpoint: mean survival time, dose: 200.0 mg/kg/injection, schedule: Q01DX009 (ip), vehicle: saline with Tween-80.
The mark [3] stands for this setting: T/C endpoint: mean survival time, dose: 400.0 mg/kg/injection, schedule: Q04DX003 (ip), vehicle: saline with Tween-80.

The list shows only some results of the screen, not a fair sample: it is rich in T/C values a quarter to a half above the control, in often repeated tests (any T/C) and in doses without a T/C. Other doses and runs of a compound stand elsewhere. T/C is the treated group as % of the vehicle group. Some entries give survivors of the animals treated and no T/C: the source holds a T/C of zero for them, seemingly a mark for toxic or unscored doses. Some survivor counts are full or nearly so, which does not show that the dose was tolerated: the source hardly ever lists a survival T/C far under the control, and the zero likely stands for such cases as well. Counts of survivors are from the toxicity check (mostly the fifth day) where no day follows; animals may have died later. Schedule codes are those of the source, read here as Q, the interval in days (D) or hours (H), X, the number of doses. Some entries hold several experiments; the values are given in rising order. For survival time, the PubChem record calls one and a half times the control and up active, and a quarter to a half above the control has no call in these data; cut-offs in other NCI protocols can differ. Some T/C values carry the count of animals alive at the toxicity check (mostly the fifth day); where none is given, no animal had died by that day.

`NNC(=O)Nc1ccccc1`: the survivor count runs as follows: (T/C endpoint: mean survival time, dose: 100.0 mg/kg/injection, schedule: Q01DX001 (ip), vehicle: saline with Tween-80) 0 of 3; (T/C endpoint: mean survival time, dose: 200.0 mg/kg/injection, schedule: Q01DX001 (ip), vehicle: saline with Tween-80) 0 of 3; under setting [1], 0 of 3.
For the compound `CN(C)CCSCC(=O)N1c2ccccc2Sc2ccc(Cl)cc21`, the survivor count by setting is: under setting [2], 0 of 6; under setting [3], 0 of 6.
As for `Cc1c2ccccc2cc2cccc[n+]12`, the survivor count is, setting by setting: (T/C endpoint: mean survival time, dose: 40.0 mg/kg/injection, schedule: Q01DX009 (ip), vehicle: saline) 1 of 6 and 5 of 6; (T/C endpoint: mean survival time, dose: 80.0 mg/kg/injection, schedule: Q01DX009 (ip), vehicle: saline) 0 of 6.
Consider `C=CCCCCCCCCC(=O)NCCCN1CCOCC1`, for which the survivor count under setting [1] is listed as 0 of 6.
On to `CC1(C)N=C(N)N=C(N)N1c1cccc(CCCCc2ccc(Cl)c(S(=O)(=O)F)c2)c1`, for which the survivor count runs as follows: (T/C endpoint: mean survival time, dose: 100.0 mg/kg/injection, schedule: Q04DX003 (ip), vehicle: saline sonified) 6 of 6; (T/C endpoint: mean survival time, dose: 400.0 mg/kg/injection, schedule: Q04DX003 (ip), vehicle: saline sonified) 2 of 6.
For `CC(C)(C)C1CCC(=O)C1` (stereo not drawn), the survivor count (T/C endpoint: mean survival time, dose: 50.0 mg/kg/injection, schedule: Q01DX009 (ip), vehicle: saline with Tween-80) was 3 of 3.
Consider `CCCC(N)C(=O)c1ccccc1` (stereo not drawn), for which the survivor count is recorded as 2 of 6 (T/C endpoint: mean survival time, dose: 150.0 mg/kg/injection, schedule: Q04DX003 (ip), vehicle: saline); 0 of 6 (T/C endpoint: mean survival time, dose: 225.0 mg/kg/injection, schedule: Q04DX003 (ip), vehicle: saline); 0 of 6 (T/C endpoint: mean survival time, dose: 335.0 mg/kg/injection, schedule: Q04DX003 (ip), vehicle: saline).
With `COCC/C(COC)=N/N`, the survivor count by setting is: under setting [2], 3 of 6; (T/C endpoint: mean survival time, dose: 400.0 mg/kg/injection, schedule: Q01DX009 (ip), vehicle: saline with Tween-80) 0 of 6.
For `C=C1CC(O)C2C(=C)C(=O)OC2C2C(C)C(=O)CC12` (stereo not drawn), the survivor count (T/C endpoint: mean survival time, dose: 50.0 mg/kg/injection, schedule: Q01DX009 (ip), vehicle: Klucel (hydroxypropylcellulose) (HPC)) is on record as 6 of 6.
Consider `CN1CCCN(C)C1c1ccc(Cl)cc1`, for which the survivor count is 0 of 6 (T/C endpoint: mean survival time, dose: 100.0 mg/kg/injection, schedule: Q04DX003 (ip), vehicle: saline with Tween-80); 0 of 6 (T/C endpoint: mean survival time, dose: 200.0 mg/kg/injection, schedule: Q04DX003 (ip), vehicle: saline with Tween-80); 0 of 6 under setting [3].
As for `COC1=C(OC)C(=O)C(N(C)C)=C(CO)C1=O`, for the setting “T/C endpoint: median survival time, dose: 240.0 mg/kg/injection, schedule: Q01DX005 (ip), vehicle: saline”, the survivor count is 0 of 6.
Turning to `CC(=O)Oc1ccccc1C(=O)O`, the survivor count is, setting by setting: (T/C endpoint: mean survival time, dose: 200.0 mg/kg/injection, schedule: Q03HX024 (ip), vehicle: saline) 0 of 6; (T/C endpoint: mean survival time, dose: 250.0 mg/kg/injection, schedule: Q01DX009 (ip), vehicle: saline with Tween-80) 3 of 6; (T/C endpoint: mean survival time, dose: 400.0 mg/kg/injection, schedule: Q03HX024 (ip), vehicle: saline) 0 of 6; (T/C endpoint: mean survival time, dose: 500.0 mg/kg/injection, schedule: Q01DX009 (ip), vehicle: saline with Tween-80) 1 of 6; (T/C endpoint: mean survival time, dose: 1000.0 mg/kg/injection, schedule: Q01DX009 (ip), vehicle: saline with Tween-80) 0 of 6; (T/C endpoint: mean survival time, dose: 2000.0 mg/kg/injection, schedule: Q01DX001 (ip), vehicle: saline with Tween-80) 2 of 6. Besides, for the setting “T/C endpoint: mean survival time, dose: 4000.0 mg/kg/injection, schedule: Q01DX001 (ip), vehicle: saline with Tween-80”, the survivor count is reported as 0 of 6.
On to `CN(C)Cc1c(-c2ccccc2)c(CN(C)C)n2ccccc12`, for which the survivor count is 0 of 6 (T/C endpoint: mean survival time, dose: 150.0 mg/kg/injection, schedule: Q01DX001 (ip), vehicle: saline) and 0 of 6 (T/C endpoint: mean survival time, dose: 300.0 mg/kg/injection, schedule: Q01DX001 (ip), vehicle: saline).
Take `N=C(N)SSC(=N)N`: the survivor count (T/C endpoint: mean survival time, dose: 200.0 mg/kg/injection, schedule: Q01DX009 (ip), vehicle: saline) is listed as 1 of 3.
In the case of `NC(=S=O)C(N)=S=O`, for the setting “T/C endpoint: median survival time, dose: 800.0 mg/kg/injection, schedule: Q01DX005 (ip), vehicle: saline with Tween-80”, the survivor count is on record as 0 of 6.
Regarding `CCOc1c(C#N)c2c(N)ncnc2n1C1OC(CO)C(O)C1O` (stereo not drawn), the survivor count (T/C endpoint: mean survival time, dose: 200.0 mg/kg/injection, schedule: Q01DX009 (ip), vehicle: distilled water + Tween-80) was 2 of 5.
Take `c1cc2c(ncn3nnnc23)[nH]1`: the survivor count is on record as 0 of 5 (T/C endpoint: mean survival time, dose: 200.0 mg/kg/injection, schedule: Q01DX009 (ip), vehicle: Klucel (hydroxypropylcellulose) (HPC)) and 0 of 5 (T/C endpoint: mean survival time, dose: 400.0 mg/kg/injection, schedule: Q01DX009 (ip), vehicle: Klucel (hydroxypropylcellulose) (HPC)).
`CN(Cc1cnc2nc(N)nc(N)c2n1)c1ccc(C(=O)NC(CCC(=O)NC(CCC(=O)NC(CCC(=O)O)C(=O)O)C(=O)O)C(=O)O)cc1` (stereo not drawn): the T/C (T/C endpoint: mean survival time, dose: 4.0 mg/kg/injection, schedule: Q01DX005 (ip), vehicle: sodium bicarbonate) is 129 and 144 % of control [5 of 6 alive]. For the setting “T/C endpoint: mean survival time, dose: 32.0 mg/kg/injection, schedule: Q01DX005 (ip), vehicle: sodium bicarbonate”, the survivor count is reported as 4 of 6.
Take `C[n+]1c2ccccc2cc2ccccc21`: the survivor count (T/C endpoint: mean survival time, dose: 50.0 mg/kg/injection, schedule: Q04DX003 (ip), vehicle: saline) is 5 of 6.
